One test deals with GST-ArgBP2 SH3 A domain. The experiment in a line: pull-down; same experiment as a5: P1 peptide (50 uM) as competitor on the GST-SH3 domains on beads; both purified.
The next test addresses GST-ArgBP2 SH3 B domain. The description is as above.

No constants are given. Whether binding was seen depends on the method and setting. A result given as binding can be weak or reduced; the word gives no strength.

Regarding AQPARPPPPAQPGE (acetylated at the amino terminus; amidated at the carboxyl terminus) [P1 peptide], the binding result in the test with GST-ArgBP2 SH3 A domain and with GST-ArgBP2 SH3 B domain was “binds” throughout.

The values are drawn from PMC3903627.
